No constants are given. Whether binding was seen depends on the method and setting.
Biological target: DOC domain of HERC2 (HERC2DOC, aa 2759–2914) (human) (UniProt O95714)
Experiment: NMR titration; 1H,15N HSQC of 0.1–0.2 mM 15N-labelled HERC2 protein titrated with unlabeled protein or peptide; 298 K; 20 mM Tris (pH 6.8) or 20 mM PBS (pH 6.5), 150 mM NaCl, 2 mM DTT, 10% D2O; both purified

By UniProt entry, the sequences of proteins in these tests, tags left out. Where a name states a change or a piece, a line headed by the entry shows the natural chain unless it says otherwise. Chains listed by the source or under a name are the forms on record and can include a tag or linker. Residues count along the entry.
DOC domain of HERC2 (HERC2DOC, aa 2759–2914) (O95714, residues 2759-2914): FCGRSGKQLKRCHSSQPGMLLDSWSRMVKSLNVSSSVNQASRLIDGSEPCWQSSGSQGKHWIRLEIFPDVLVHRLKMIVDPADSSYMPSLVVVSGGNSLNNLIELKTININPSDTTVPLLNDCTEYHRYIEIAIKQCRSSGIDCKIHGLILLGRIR
ZZ domain of HERC2 (HERC2ZZ, aa 2702–2755 with additional tryptophan at the C-terminus) (O95714, form named): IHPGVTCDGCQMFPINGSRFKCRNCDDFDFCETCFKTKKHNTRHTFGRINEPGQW

binding: no binding
Substance: ZZ domain of HERC2 (HERC2ZZ, aa 2702–2755 with additional tryptophan at the C-terminus) (from UniProt O95714 2702-2755) (domain or fragment)
